This is an account of results in PubChem BioAssay AID434947 (Broad Institute, 2010).

Each structure is given as a SMILES string. Hit rate of the full screen: of about 2,200 compounds, about 15 (0.7%) were called active.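 How the source made its calls: active means fitted half-maximal concentration for loss of luminescence signal no more than a set limit of log units above the top tested concentration; inconclusive means flat fit with 30 to 70% signal loss, or invalid fit; inactive means half-maximal concentration above that set limit.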 Some of the results follow.

This test can be described thus: inhibitors of ADP-Glo detection reagents, dose response, artefact control for GSK3beta inhibitor project, biochemical, luminescence, cell-free, homogeneous (AID 434947). Conditions: 5 uM ADP. For orientation: ADP-Glo first removes unused ATP, then detects ADP through luciferase.
For orientation: EC50 means the concentration at which the effect is half-maximal. For `Nc1nc(F)nc2c1ncn2[C@@H]1O[C@H](CO)[C@@H](O)[C@@H]1O`, the EC50 is inactive: > 30 µM.
As for `Cc1ccc2c(c1)COc1c3ccc(C(=O)O)cc3nn1-2`, the EC50 is inactive: > 30 µM.
Turning to `COc1ccc(OC)c(Nc2nc(N)c([N+](=O)[O-])c(NC3CCCCC3)n2)c1`, the EC50 was inactive: > 30 µM.
For the compound `O=C(O)c1ccccc1C(=O)Nc1nccs1`, the EC50 is inactive: > 30 µM.
For `Cc1nn(CC(=O)N2CCN(c3ccccn3)CC2)c(=O)c2cc3sccc3n12` the value was inactive: > 30 µM; for `COc1ccc2nc(C)cc(N3CCN(c4ccccc4)CC3)c2c1`, inactive: > 30 µM; for `COC(=O)c1nnn(-c2nonc2N)c1CSc1nnc(N)s1`, inactive: > 30 µM.
Then `O=C(NCCN1C(=O)S/C(=C\c2ccc(Cl)c(Cl)c2)C1=O)C1COc2ccccc2O1` (stereo not drawn), with inactive: > 30 µM; and `O=C(O)COc1ccc2occ(C(=O)c3ccccc3)c2c1`, with inactive: > 30 µM.
Then `OCCNc1nc2nonc2nc1NCCO`, with inactive: > 30 µM.
As to `CCC(C)Nc1nc(N)c([N+](=O)[O-])c(Nc2cc(OC)ccc2OC)n1` (stereo not drawn), the EC50 is inactive: > 30 µM.
On to `COc1ccc(N2CCN(CCNC(=O)c3nnc(Cc4c(F)cccc4Cl)o3)CC2)cc1`, for which the EC50 is inactive: > 30 µM.
As for `C/C(=N\NC(=O)c1nnn(-c2nonc2N)c1CN1CCC(C)CC1)c1cccc(Br)c1`, the EC50 is inactive: > 30 µM.
For `O=c1cc(-c2ccc(O)cc2)oc2cc(O)cc(O)c12`, the EC50 is inactive: > 30 µM.
Take `O=C(C(Cc1ccccc1)n1cccc1)N1CCN(c2cccc(Cl)c2)CC1` (stereo not drawn): the EC50 was inactive: > 30 µM.
Take `Cc1c(Br)c([N+](=O)[O-])nn1CCCC(=O)N1CCN(c2ccccc2)CC1`: the EC50 is inactive: > 30 µM.
Then `C/C=C/c1ccc(OCC(=O)O)c(OC)c1`, with inactive: > 30 µM; and `COc1ccc(CCNc2nc(-c3cccnc3)nc3ccccc23)cc1OC`, with inactive: > 30 µM; and `CN(C)c1ccc(/C=N/NC(=O)c2nnn(-c3nonc3N)c2CN2CCCCCC2)cc1`, with inactive: > 30 µM.
For the compound `COc1ccc(NC(=O)NC2CCCc3ccccc32)cc1` (stereo not drawn), the EC50 was inactive: > 30 µM.
`COc1ccc2nc(NC(=O)CSc3nc4cccnc4n3C)sc2c1`: the EC50 was inactive: > 30 µM.
As to `O=[N+]([O-])c1ccc(N2CCCCCC2)c([N+](=O)[O-])c1`, the EC50 is inactive: > 30 µM.
On to `O=c1cc(-c2ccccc2Cl)oc2c(NS(=O)(=O)c3cccs3)ccc(O)c12`, for which the EC50 was inactive: > 30 µM.
`COc1ccc(CNC(=O)CN(Cc2cccs2)C(=O)CCC(=O)Nc2ccccn2)cc1`: the EC50 was inactive: > 30 µM.
As for `O=C(CCSCCc1ccccn1)Nc1ccc(Br)cn1`, the EC50 is inactive: > 30 µM.
As to `Nc1nc(Nc2ccccc2)nc(NCCO)c1[N+](=O)[O-]`, the EC50 was inactive: > 30 µM.
`Clc1cccc(CNc2nc(-c3cccnc3)nc3ccccc23)c1`: the EC50 is inactive: > 30 µM.
Then `COc1ccc(C(=O)NCC(=O)N/N=C/c2ccc(C)o2)cc1OC`, with inactive: > 30 µM.
On to `COc1ccc(-c2nn(-c3ccccc3)cc2/C=N/n2cnnc2)cc1OC`, for which the EC50 was inactive: > 30 µM.
On to `COc1ccc(Nc2ccccc2C(=O)O)cc1`, for which the EC50 was inactive: > 30 µM.
With `CCCn1nc(NC(=O)C2CCCO2)c2cc3cc(C)ccc3nc21` (stereo not drawn), the EC50 was inactive: > 30 µM.
For the compound `O=C1CC(O)(C(F)(F)F)Oc2c1ccc1ccccc21` (stereo not drawn), the EC50 was inactive: > 30 µM.
Turning to `OCCCNc1cc(-c2ccnc(Nc3cccc(Cl)c3)n2)ccn1`, the EC50 was inactive: > 30 µM.
In the case of `Cc1ccc(-c2nn(-c3ccccc3)cc2/C=N/n2c(-c3ccncc3)n[nH]c2=S)cc1`, the EC50 is inactive: > 30 µM.
For `CC(C)c1c(C(=O)N/N=C/c2ccoc2)nnn1-c1nonc1N`, the EC50 was inactive: > 30 µM.
For the compound `N#Cc1c2n(c3c(=S)nc[nH]c13)CCCCC2`, the EC50 is inactive: > 30 µM.
Turning to `O=C1c2ccccc2NC(c2cn[nH]c2-c2ccccc2)N1O` (stereo not drawn), the EC50 was inactive: > 30 µM.
`COc1ccc(/C=c2\s/c(=C\C(=O)C(C)(C)C)[nH]c2=O)cc1O`: the EC50 is inactive: > 30 µM.
Then `COCCN(CC(=O)NCc1ccc(F)cc1)C(=O)CCC(=O)Nc1ccccn1`, with inactive: > 30 µM; and `CCN1C(=O)N[C@@H](c2ccccc2)[C@@H](C(=O)OC)[C@H]1C`, with inactive: > 30 µM.
With `O=C(NCc1ccccc1)c1ccc2nccnc2c1`, the EC50 was inactive: > 30 µM.
Take `Cc1nn(-c2ccccc2)c2c1cc1c(=O)n(C)c(=O)nc-1n2-c1ccccc1F`: the EC50 was inactive: > 30 µM.
With `CN1CCc2c(sc(NC(=O)Cc3ccccc3)c2C(N)=O)C1`, the EC50 was inactive: > 30 µM.
On to `O=C(O)Cn1cc(/C=N/Nc2ccc([N+](=O)[O-])cn2)c2ccccc21`, for which the EC50 is inactive: > 30 µM.
Turning to `Cc1cc(C)n2nc(C(=O)N/N=C/c3ccc(O)cc3)nc2n1`, the EC50 was inactive: > 30 µM.
For `Nc1nonc1-n1nnc(C(=O)N/N=C/c2ccccn2)c1-c1ccccc1` the value was inactive: > 30 µM; for `O=C1NCCCc2c1oc1cc(Br)c(O)c(Br)c21`, inactive: > 30 µM; for `COc1cccc(CCNC(=O)c2ccc(C#N)cc2)c1`, inactive: > 30 µM.
Then `CCOC(=O)c1nnn(CC(=O)Nc2cccc(OC)c2)c1C(=O)OCC`, with inactive: > 30 µM.
For `Cc1ccccc1/C=N/Nc1ncnc2nc[nH]c12` the value was inactive: > 30 µM.
In the case of `COc1cccc(/C=N/Nc2cc(Cl)nc(C)n2)c1O`, the EC50 is inactive: > 30 µM.
For `CN(C)c1ccc(C(=O)NN2C(=O)c3ccccc3C2=O)cc1` the value was inactive: > 30 µM; for `Cc1ccc(S(=O)(=O)NCC2COc3ccccc3O2)cc1` (stereo not drawn), inactive: > 30 µM; for `COc1ccc(/C=C(/NC(=O)c2ccccc2)C(=O)N/N=C/c2ccncc2)c(OC)c1`, inactive: > 30 µM.
With `COc1ccccc1NC(=O)C(C)Nc1ccc(C)c(Cl)c1` (stereo not drawn), the EC50 was inactive: > 30 µM.
In the case of `COc1ccc(C(=O)c2coc3ccc(O)c(CN(C)C)c23)cc1`, the EC50 is inactive: > 30 µM.
`CCOC(=O)C1=C(C)Nc2ncnn2C1c1cc(Br)ccc1F` (stereo not drawn): the EC50 was inactive: > 30 µM.
Then `C[C@@H]1O[C@@H](Oc2c(-c3cc(O)c(O)c(O)c3)oc3cc(O)cc(O)c3c2=O)[C@H](O)[C@H](O)[C@H]1O`, with inactive: > 30 µM.
For `CCCc1c(C(=O)N/N=C/c2ccncc2)nnn1-c1nonc1N` the value was inactive: > 30 µM; for `COc1ccccc1-c1ccc(=O)n(CC(=O)NCc2ccco2)n1`, inactive: > 30 µM; for `CCN1CCN(Cc2c(O)ccc3c2O/C(=C\C=C\c2ccccc2)C3=O)CC1`, inactive: > 30 µM.
Regarding `COc1ccc(-c2nn(-c3ccccc3)cc2/C=C/C(=O)N2CCOCC2)cc1OC`, the EC50 is inactive: > 30 µM.
On to `Fc1ccc(CSc2ccc3nnc(-c4cccs4)n3n2)cc1`, for which the EC50 is inactive: > 30 µM.
On to `C=CCN=C(NC#N)SCC(=O)c1cccc(OC)c1`, for which the EC50 is inactive: > 30 µM.
`Cc1nn(-c2ccccn2)c2c1C(c1ccsc1)C1=C(CCCC1=O)N2` (stereo not drawn): the EC50 was inactive: > 30 µM.
For `Cc1ccc(C(=O)c2coc3ccc(O)c(CN(C)C)c23)cc1` the value was inactive: > 30 µM; for `CC1=C(C(=O)OCc2ccccc2)C(c2ccco2)n2ncnc2N1` (stereo not drawn), inactive: > 30 µM.
For the compound `COC(=O)CCC(=O)Oc1ccc(OC(=O)CCC(=O)OC)cc1`, the EC50 is inactive: > 30 µM.
In the case of `COc1ccc(C(O)c2coc3ccc(O)c(CN(C)C)c23)cc1` (stereo not drawn), the EC50 is inactive: > 30 µM.
For the compound `COc1ccc(-c2nn(-c3ccccc3)cc2/C=C(\C#N)S(=O)(=O)c2ccccc2)cc1OC`, the EC50 was inactive: > 30 µM.
Then `COc1ccc(CNC(=O)CN(Cc2ccccc2)C(=O)CCC(=O)Nc2nccs2)cc1`, with inactive: > 30 µM; and `COc1ccc(Nc2nc(N)c(C(=O)c3ccc(OC)cc3)s2)cc1`, with inactive: > 30 µM; and `Cc1cc(-c2[nH]nc3c2C(c2cccc(O)c2)C(C#N)=C(N)O3)c(C)s1` (stereo not drawn), with inactive: > 30 µM.
For `CCC(=O)Nc1sc2c(c1C(N)=O)CCN(Cc1ccccc1)C2` the value was inactive: > 30 µM; for `O=C(O)COc1ccc2oc3ccccc3c2c1`, inactive: > 30 µM; for `O=C(CSc1nnc(-c2ccco2)n1Cc1ccco1)N1CCOCC1`, inactive: > 30 µM.
`O=C(Nc1ncc([N+](=O)[O-])s1)c1ccco1`: the EC50 is inactive: > 30 µM.
As for `CCCC1=C(C(=O)OCC)C(c2ccco2)n2ncnc2N1` (stereo not drawn), the EC50 is inactive: > 30 µM.
Then `CCNc1nc(N)c(C(=C(C#N)C#N)c2ccccc2)s1`, with inactive: > 30 µM.
As for `O=C(OCc1ccc(COC(=O)c2ccc(O)cc2)cc1)c1ccc(O)cc1`, the EC50 was inactive: > 30 µM.
For `COc1ccc(Cl)cc1NC(=O)CS(=O)(=O)c1cccc2nsnc12`, the EC50 is inactive: > 30 µM.
Regarding `CCOc1ccc(C(=O)NCC(=O)OCc2c(C)noc2C)cc1`, the EC50 was inactive: > 30 µM.
With `CCSc1nc(N)nc(-c2cccs2)c1C#N`, the EC50 is inactive: > 30 µM.
Turning to `COc1ccc(-c2nn(-c3ccccc3)cc2CO)cc1`, the EC50 is inactive: > 30 µM.
For the compound `COc1ccc(-c2nn(-c3ccccc3)cc2/C=N/O)cc1`, the EC50 was inactive: > 30 µM.
Consider `Nc1nc(NCCCN2CCOCC2)nc(Nc2cccc(F)c2)c1[N+](=O)[O-]`, for which the EC50 was inactive: > 30 µM.
Turning to `Cc1cccc(/C=C2/Sc3ccc(C(=O)NCCCN4CCOCC4)cc3NC2=O)c1`, the EC50 is inactive: > 10 µM.
Then `CC(C)c1ccc(NS(=O)(=O)c2ccc(Cl)nc2)cc1`, with inactive: > 30 µM; and `Nc1ncnc(Nc2cccc(C(F)(F)F)c2)n1`, with inactive: > 30 µM; and `CCN1CCN(c2c(C=O)c(Cl)nc3ccc(OC)cc23)CC1`, with inactive: > 30 µM.
Then `Cc1ccc(CNc2nc(N)c([N+](=O)[O-])c(NCCO)n2)cc1`, with inactive: > 30 µM.
For the compound `c1cc(CSc2nnc(-c3ccc4c(c3)OCO4)o2)ccn1`, the EC50 was inactive: > 30 µM.
As to `Cc1nc(Nc2ccccc2)sc1C`, the EC50 is inactive: > 30 µM.
